SMILES strings stand for the structures. Some of the results follow. Further columns of the screen follow, without active or inactive calls. Most of these compounds were active or inconclusive in the main read-out, so they are no random draw. The note in brackets gives the kind of curve behind each potency; many fits are weak.

As usually defined, the AC50 is the concentration giving half of the maximal activity seen.

The test is described as follows: IkB Signaling. Conditions: ABC-DLBCL IkBa-CBG/CBR dual luciferase ratio (green luciferase fused to IkBa over red control in OCI-Ly3 lymphoma cells), 4 h. Summed up: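 Curves were fitted separately to fusion (green), unfused (red) and ratio luminescence, then classed by r2, magnitude and activity. Cells: OCI-Ly3, 4 h compound plus doxycycline at 37C; 10 uM MG-132 defined full response.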
Setting [1] is: measured here: control luc red channel unless noted.
[2] abbreviates: measured here: IkB-luc green channel.
The mark [3] stands for this setting: measured here: control luc red channel.

For the compound `CC(C)C(=O)Nc1c(C(=O)N2CCN(c3ccccc3F)CC2)oc2ccccc12`, under setting [1], the AC50 is 12.6 µM [falling, partial curve]. Same read-out and setting: with `Cc1ccc(-c2nc3sc(CCNC(=O)c4ccco4)c(C)n3n2)cc1` the figure was 15.8 µM [falling, single point]; with `Cc1ccccc1NC(=O)CCc1c(C)nc2c(c1C)c(=O)n(C)c(=O)n2C`, 39.8 µM [falling, single point]; with `CS(=O)(=O)N1CCCC(c2nc(-c3ccc(S(=O)(=O)NCc4ccccc4)cc3)no2)C1` (stereo unspecified), 15.8 µM [falling, partial curve]. On the same count and under the same terms, next, `COc1cccc(NC(=O)c2nnn(Cc3cccc(C(F)(F)F)c3)c2N)c1`: 7.94 µM [rising, partial curve]; `Cc1csc(NC(=O)CSc2nnc(-c3ccoc3C)n2CCc2ccccc2)n1`: 31.6 µM [falling, single point]; `Cc1cccc(CN2C(=O)c3ccccc3S(=O)(=O)c3ccc(C(=O)N4CCCC4)cc32)c1`: 31.6 µM [falling, single point]. `CNc1nnc(-c2cc3ccccc3oc2=O)s1`: under setting [1], the AC50 was 2.51 µM [falling, full curve, poor fit]. The same measure, in the same setting: with `Cc1oc(-c2ccccc2Cl)nc1CS(=O)(=O)CC(=O)NC(C)CCc1ccccc1` (stereo unspecified) the figure was 15.8 µM [falling, partial curve]; with `COc1ccc(C(=O)Nc2nc3nc(C)c(Cl)c(=O)n3[nH]2)cc1`, 39.8 µM [falling, partial curve, poor fit]. For the compound `Cc1ccc2nc(Cl)c3cc(C(=O)NC4CCCCC4)sc3c2c1`, under setting [1], the AC50 is 3.98 µM [rising, single point]. The same measure, in the same setting: with `CCOC(=O)c1ccc(NC(=O)c2nsc3ccccc23)cc1` the figure was 0.0631 µM [falling, full curve]; with `COc1ccccc1NC(=O)c1ccccc1-c1nc(-c2ccccc2OC)no1`, 3.98 µM [falling, full curve]; with `CN1CCc2nc3sc(C(=O)Nc4c(F)cccc4F)c(N)c3cc2C1`, 3.16 µM [falling, partial curve]. As for `Cc1ccc(-c2cnc(NCc3c(F)cccc3Cl)n2C)cc1`, under setting [1], the AC50 was 25.1 µM [falling, single point]. In the case of `O=C(NCc1cccs1)c1cc2c(s1)-c1ccccc1OC2`, under setting [1], the AC50 was 6.31 µM [falling, partial curve].

Take `CCOC(=O)c1cc(S(=O)(=O)N2CCN(c3cc(Cl)ccc3C)CC2)[nH]n1`: the AC50 under setting [1] was 20 µM [falling, partial curve, poor fit]. For `Cc1ccc(C)c2sc(N3CCN(C(=O)c4ccco4)CC3)nc12`, under setting [1], the concentration at half-maximal activity (AC50) was 1.58 µM [rising, full curve]. For the compound `Cc1ccc(NC(=O)Cn2ncc3c4ccccc4n(Cc4ccccc4)c3c2=O)cc1Cl`, under setting [1], the AC50 is 31.6 µM [falling, single point]. On the same count and under the same terms, next, `Cc1cn2c(=O)c(S(=O)(=O)NC(C)c3ccccc3)c(C)nc2s1` (stereo unspecified): 0.251 µM [rising, partial curve]; `Cc1cccc(Cn2c(-c3cccs3)nc3ccccc32)c1`: 25.1 µM [falling, single point]; `NC(=O)Cn1c(=O)n(-c2ccc(F)c(Cl)c2)c(=O)c2sc3ccccc3c21`: 7.94 µM [falling, partial curve].

On to `O=c1c2sc3ccccc3c2n(Cc2ccccc2F)c(=O)n1-c1ccccc1Cl`, for which the AC50 under setting [1] was 5.01 µM [rising, partial curve].

With `Cc1ccccc1NC(=O)c1c(C)oc2ccc(O)c(CN3CCCC(C)C3)c12` (stereo unspecified), the AC50 under setting [1] is 25.1 µM [falling, single point]. Still for that read-out and setting: next, `CCN(CC)S(=O)(=O)c1ccc2nc(NC(=O)c3ccccc3OC)sc2c1`: 3.16 µM [falling, full curve, poor fit]. For the compound `Cc1nnc(N2CCC(C(=O)NCc3ccc(F)cc3)CC2)c2nn(-c3ccc(Cl)cc3)c(C)c12`, the AC50 is 39.8 µM [rising, single point] under setting [2] and 39.8 µM [rising, partial curve] under setting [3]. For `Cc1ccc2[nH]c(=O)c(-c3nc4c(C)cccn4c3NCc3ccco3)cc2c1`, the AC50 under setting [1] is 39.8 µM [falling, single point].

For `CCCCOc1ccc(C(=O)NCCS(=O)(=O)N2CCN(c3ccccc3OC)CC2)cc1`, under setting [1], the AC50 was 25.1 µM [falling, partial curve]. The same measure, in the same setting: with `CN(C)c1ccc(C(CNC(=O)c2ccccc2Cl)N2CCc3ccccc32)cc1` (stereo unspecified) the figure was 1.58 µM [falling, full curve]. Still for that read-out and setting: with `Cc1ccc2oc(-c3cc(NC(=O)Cc4ccccc4)ccc3Cl)nc2c1` the figure was 3.98 µM [falling, full curve]; with `O=C(COc1ccc(Cl)cc1)Nc1ccc(O)c(-c2nc3ccccc3s2)c1`, 39.8 µM [falling, single point]. Consider `CC(=O)Nc1ccccc1OCC(=O)c1cc(C)n(Cc2cccs2)c1C`, for which, under setting [1], the AC50 was 5.01 µM [falling, partial curve]. For `CCOC(=O)c1cnn(-c2ncnc3c2oc2ccccc23)c1N`, the AC50 under setting [1] is 0.398 µM [rising, full curve, poor fit]. Turning to `Cc1cc(Br)ccc1NC(=O)COc1cc(=O)n(C)c2ccccc12`, under setting [1], the AC50 was 3.16 µM [rising, partial curve].

On to `Cc1cc2ccccc2n1CCNC(=O)c1ccccc1F`, for which the AC50 under setting [1] is 25.1 µM [falling, single point]. Still for that read-out and setting: next, `c1ccc2sc(SN3CCOCC3)nc2c1`: 3.98 µM [rising, partial curve]. `Cc1cc(-n2c(C)cc(C(=O)CSc3nnnn3-c3ccccc3)c2C)no1`: the AC50 under setting [1] is 12.6 µM [falling, partial curve]. On the same count and under the same terms, next, `O=C(NCC(c1ccc2c(c1)OCO2)N1CCN(c2ccccc2)CC1)C(=O)Nc1ccccc1` (stereo unspecified): 3.98 µM [falling, partial curve, poor fit]; `COC(=O)c1ccc(C2C3=C(Nc4nnnn42)c2ccccc2OC3)cc1` (stereo unspecified): 25.1 µM [falling, single point].

Turning to `Cc1ccc2nc(NC(=O)CCNS(=O)(=O)c3ccc(Br)s3)sc2c1`, the AC50 under setting [1] was 20 µM [falling, partial curve]. As to `COc1ccc(C(=O)Nc2ccccc2)cc1S(=O)(=O)Nc1ccc(Br)cc1`, the AC50 under setting [1] was 3.16 µM [falling, full curve]. Consider `Cn1c(-c2ccc(F)cc2)cnc1SCC(=O)Nc1ccccc1N1CCOCC1`, for which, under setting [1], the AC50 was 0.01 µM [falling, full curve]. Same read-out and setting: with `O=C(OCc1cc(=O)n2nc(C3CC3)sc2n1)c1ccc(NC(=O)c2ccccc2Cl)cc1` the figure was 31.6 µM [falling, partial curve]; with `COC(=O)CSc1nnc(-c2cccs2)n1-c1ccc(Cl)cc1`, 3.98 µM [falling, full curve].

For `O=C(Nc1ccc2nc(SCC(=O)N3CCCc4ccccc43)sc2c1)c1ccccc1F`, the AC50 under setting [1] was 12.6 µM [falling, partial curve].

Take `Cc1ccc(NC(=O)CCn2nc(-c3ccccc3)c3ccccc3c2=O)c(C)c1`: the AC50 under setting [1] is 25.1 µM [falling, single point]. Still for that read-out and setting: next, `CCc1ccc(C2=C(C)C(N3CCC(C(=O)Nc4ccc(F)cc4)CC3)=NS2(=O)=O)cc1`: 6.31 µM [falling, single point]; `Cc1cccc2cc(CN(C(=O)c3cccc(Cl)c3)c3ccccc3)c(=O)[nH]c12`: 3.16 µM [falling, partial curve]; `CCN(C(=O)CSc1nc(-c2ccccc2)no1)c1cccc(C)c1`: 1.26 µM [falling, full curve]. On the same count and under the same terms, next, `COc1ccccc1Nc1nn2c(=O)c3ccc(C(=O)NC4CCC(C)CC4)cc3nc2s1` (stereo unspecified): 25.1 µM [falling, single point]; `COc1ccccc1C(=O)Nc1cccc(OCc2cc(=O)n3c4c(sc3n2)CCCC4)c1`: 15.8 µM [falling, partial curve]; `COc1ccc(NC(=O)C2(S(=O)(=O)c3ccc(C)cc3)CC2)c(OC)c1`: 0.0631 µM [rising, full curve]. In the case of `COc1ccc(CCNC(=O)C2CCN(Cc3nc(-c4cccc(Cl)c4)oc3C)CC2)cc1OC`, the AC50 under setting [1] is 31.6 µM [falling, partial curve]. On the same count and under the same terms, next, `CCOc1ccc(NC(c2ccc(Cl)cc2)c2nnc(-c3cccc(F)c3)o2)cc1` (stereo unspecified): 31.6 µM [falling, single point]; `Cc1ccc(CN(C(=O)COc2cccc(Cl)c2)c2ccccn2)o1`: 39.8 µM [falling, single point]; `CCSc1ncc(Cl)c(C(=O)Nc2ccc(S(=O)(=O)N3CCCCC3CC)cc2)n1` (stereo unspecified): 2 µM [falling, single point].

As to `COc1cc(O)ccc1-c1nc2ccc(Br)cn2c1Nc1ccccc1C`, the AC50 under setting [1] was 15.8 µM [falling, partial curve]. Still for that read-out and setting: with `O=C(CSc1nccn1Cc1ccc(F)cc1)NC1CCCC1` the figure was 20 µM [falling, single point]. For `COc1ccccc1OCCn1cc(C(=O)c2ccco2)c2ccccc21`, the AC50 was 39.8 µM [falling, single point] under setting [2] and 39.8 µM [falling, single point] under setting [3].

With `CCOC(=O)c1ccc(NC(=O)C2CCN(S(=O)(=O)Cc3ccccc3)CC2)cc1`, under setting [1], the AC50 was 15.8 µM [falling, partial curve]. The same measure, in the same setting: with `O=S(=O)(Nc1ccc(S(=O)(=O)N2CCCCC2)cc1)c1ccc(Br)s1` the figure was 12.6 µM [falling, partial curve]. On the same count and under the same terms, next, `Cc1ccc(C(=O)NCCSc2c[nH]c3ccccc23)cc1C`: 25.1 µM [falling, partial curve]; `Cc1cccc(NC(=O)c2ccc(F)c(S(=O)(=O)NCc3ccc4c(c3)OCO4)c2)c1`: 31.6 µM [falling, single point]. As for `Cc1cc(C)cc(NC(=O)CSc2oc(-c3cccs3)nc2S(=O)(=O)c2ccc(Br)cc2)c1`, under setting [1], the AC50 is 15.8 µM [falling, partial curve].

These data come from PubChem BioAssay AID445 (National Center for Advancing Translational Sciences (NCATS), 2006).
